Consider 59 molecules from PubChem BioAssay AID2685 (National Center for Advancing Translational Sciences (NCATS), 2010).

The AC50 is the concentration at which the activity in the assay is half-maximal.

A short description of this test: qHTS Assay for Lipid Storage Modulators in Drosophila S3 Cells.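 As to cell number change: cells counted by Cell Tracker Red CMTPX staining in the red channel.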 Conditions: BODIPY lipid droplet fluorescence, 18-24 h; for cell number change: measured here: cell count max response, cells fed with added oleic acid. An outline of the steps: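 Drosophila S3 cells got compounds at several concentrations plus oleic acid (400 uM solution). Laser-scanning cytometry with 488 nm excitation read lipid droplets at 500-530 nm and cells at 575-640 nm. Percent activity was relative to 20 uM Triacsin C.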
In general terms: In qHTS, concentration-response curves come from the screen itself.

[1] abbreviates: measured here: lipid fluorescence (Fed channel) AC50, cells fed with added oleic acid.
Setting [2] is: measured here: cell number channel AC50, cells fed with added oleic acid.

The list shows a part of the results. Shown are side measurements of this screen, not its main read-out; they come without a call. The list favours compounds with an active or inconclusive main result. The note in brackets gives the kind of curve behind each potency; many fits are weak.

Consider `Cc1ccc(S(=O)(=O)N2CCN(C(=O)NCc3ccc(C(=O)O)cc3)CC2)cc1`, for which the cell number change was 9.17%. Further, the AC50 under setting [1] was 8.2 µM [rising, single point].

`O=C(CSCc1ccc(Br)cc1)Nc1ccc(S(=O)(=O)N2CCCCCC2)cc1`: the cell number change is 97.4%. The AC50 under setting [1] is 29.1 µM [falling, single point].

On to `Cn1cc(CNCc2ccc(-n3cccn3)cc2)c(-c2ccccc2F)n1`, for which the cell number change is -51.7%. Also, the AC50 under setting [2] was 7.31 µM [falling, partial curve]. Further, under setting [1], the half-maximal activity concentration (AC50) was 7.31 µM [falling, partial curve].

As to `Cc1cc(N/N=C/c2cccc(Br)c2)nc2ccccc12`, the cell number change is 26%. Moreover, the AC50 under setting [1] is 29.1 µM [falling, single point].

For `Cc1ccnc(NC(=O)c2ccc([N+](=O)[O-])o2)c1`, the cell number change was -29.3%. Besides, the AC50 under setting [1] was 25.9 µM [falling, single point].

With `CN(c1ccccc1)S(=O)(=O)c1cccc(NC(=O)CCNC(=O)c2ccc(Cl)cc2)c1`, the cell number change came out at 14.9%. For the same molecule, the AC50 under setting [1] was 2.91 µM [rising, single point].

Consider `CN(CC(=O)Nc1ccccc1Br)CC(=O)Nc1ccccc1C(F)(F)F`, for which the cell number change stood at 30.5%.

Regarding `O=C(COC(=O)c1ccc2c(c1Cl)C(=O)c1ccccc1C2=O)NC1CCCCC1`, the cell number change came to 31.1%. The AC50 under setting [2] is 20.6 µM [rising, single point]. For the same molecule, under setting [1], the concentration at half-maximal activity (AC50) was 29.1 µM [rising, single point].

For `COc1ccc(/C=C/C2=CCN(Cc3ccc(OC)cc3)CC2)cc1`, the cell number change is -29.2%. Besides, under setting [1], the AC50 was 29.1 µM [falling, single point].

Regarding `O=C(Cc1cn2ccsc2n1)Nc1cccc2cnccc12`, the cell number change is -12.6%. Further, under setting [2], the concentration at half-maximal activity (AC50) is 0.00517 µM [rising, full curve, poor fit]. Besides, the AC50 under setting [1] was 13 µM [rising, partial curve].

Regarding `COc1ccc(NS(=O)(=O)c2ccc(-c3coc(C)n3)cc2)cc1OC`, the cell number change was -11.9%. For the same molecule, under setting [2], the concentration at half-maximal activity (AC50) was 6.51 µM [falling, single point]. Also, the concentration at half-maximal activity (AC50) under setting [1] is 10.3 µM [falling, partial curve].

Take `Cc1onc(-c2c(Cl)cccc2Cl)c1C(=O)NN1CCCCCC1`: the cell number change is -28.7%. For the same molecule, the AC50 under setting [1] was 20.6 µM [falling, single point].

Turning to `Cc1ccc(-c2cc(C(=O)OCC(=O)N(C)c3c(N)n(Cc4ccccc4)c(=O)[nH]c3=O)c3ccccc3n2)o1`, the cell number change was -60.7%. The half-maximal activity concentration (AC50) under setting [2] was 14.6 µM [falling, partial curve]. Further, under setting [1], the AC50 was 6.51 µM [falling, single point].

As for `CN(C(=O)/C=C/c1ccc2c(c1)OCO2)c1ccccc1`, the cell number change is -12.9%. Also, under setting [1], the AC50 was 6.51 µM [falling, single point].

For the molecule `CN(C)c1ccncc1C(=O)Nc1ccc(F)cc1F`, the cell number change was determined as 12.1%. In addition, under setting [1], the AC50 was 0.517 µM [falling, single point].

As to `CCOC(=O)c1ccc(NC(=O)c2cccc(S(=O)(=O)N3CCOCC3)c2)cc1`, the cell number change is -20.8%.

`CC(=O)Nc1cc2c(cc1C(=O)c1ccc(C)cc1)OCCO2`: the cell number change is -1.9%. In addition, under setting [1], the AC50 is 11.6 µM [rising, partial curve, poor fit].

With `CCOC(=O)C1=C(c2ccccc2)N=c2s/c(=C\c3ccc(O)cc3)c(=O)n2C1c1cccs1` (stereo unspecified), the cell number change is -82.6%. Further, the concentration at half-maximal activity (AC50) under setting [2] was 18.4 µM [falling, single point].

Consider `Cc1nc2ccccc2n1CC(=O)c1ccc(O)c(O)c1`, for which the cell number change turned out to be 10.3%. In addition, the AC50 under setting [2] was 0.184 µM [rising, full curve, poor fit]. For the same molecule, the AC50 under setting [1] was 6.51 µM [rising, single point].

With `COc1ccccc1C(=O)NC(CCSC)C(=O)NNC(=O)c1ccncc1` (stereo unspecified), the AC50 under setting [1] was 29.1 µM [rising, single point].

As for `Cc1cccc2cc(CN(Cc3ccco3)C(=O)c3ccncc3)c(=O)[nH]c12`, the cell number change is 104%. The concentration at half-maximal activity (AC50) under setting [2] is 20.6 µM [rising, partial curve]. Moreover, the AC50 under setting [1] was 3.66 µM [rising, partial curve].

In the case of `COc1ccccc1CC(NC(C)=O)C(=O)NC1CCN(C(=O)Nc2ccccc2F)CC1` (stereo unspecified), the cell number change was 6.41%. The AC50 under setting [1] is 6.51 µM [falling, partial curve].

On to `Fc1ccc(COc2ccc3ccccc3c2CNc2nn[nH]n2)cc1`, for which the cell number change stood at 30.3%. The AC50 under setting [2] was 7.31 µM [rising, partial curve, poor fit].

`O=C(CSc1nnc2c(n1)[nH]c1ccc(S(=O)(=O)N3CCOCC3)cc12)Nc1ccccc1Cl`: the cell number change was 21%.

Consider `O=C(/C=C/c1ccco1)Nc1cccc(NC(=O)/C=C/c2ccco2)n1`, for which the cell number change is -11.4%.

As to `O=C(CN(Cc1ccccc1)C(=O)CCC(=O)Nc1nccs1)NCc1ccco1`, the cell number change came out at 7.98%.

In the case of `CSc1nc(SCC(=O)NCC2CCCO2)c2c3c(sc2n1)CN(C)CC3` (stereo unspecified), the cell number change worked out at 1.9%. In addition, under setting [1], the concentration at half-maximal activity (AC50) is 4.11 µM [falling, single point].

As to `Cc1ccc(S(=O)(=O)NCC(=O)OCC(=O)NC(=O)NC2CCCC2)cc1`, the cell number change was 25.7%. In addition, under setting [1], the AC50 was 18.4 µM [rising, single point].

As for `COc1ccc(CC/C(C)=N\NC(N)=O)cc1`, the cell number change amounted to 31.3%. The AC50 under setting [2] is 29.1 µM [rising, single point]. Further, the AC50 under setting [1] is 29.1 µM [rising, single point].

`CCN(CC)C(=O)c1ccccc1NC(=O)c1cccc(S(=O)(=O)N(CC)CC)c1`: the cell number change was found to be 35.7%. The half-maximal activity concentration (AC50) under setting [2] is 3.66 µM [rising, partial curve]. Also, under setting [1], the concentration at half-maximal activity (AC50) is 7.31 µM [rising, partial curve].

`O=C(CN(Cc1ccccc1)S(=O)(=O)c1ccc2c(c1)OCCO2)N/N=C/c1ccc(F)cc1`: the cell number change came out at 20.6%. The AC50 under setting [1] is 4.11 µM [rising, single point].

For `COc1ccccc1NC(=O)CSC1=NCCN1`, the cell number change came out at 1.45%. In addition, the half-maximal activity concentration (AC50) under setting [1] was 29.1 µM [falling, single point].

As for `O=C(NCc1cccnc1)C1CCN(S(=O)(=O)c2cccc(C(F)(F)F)c2)CC1`, the cell number change was -5.08%. Besides, under setting [1], the half-maximal activity concentration (AC50) is 0.92 µM [rising, full curve, poor fit].

For `c1ccc(N2CCN(c3ncnc4sc5c(c34)CCC5)CC2)cc1`, the cell number change was -19.2%. Moreover, the concentration at half-maximal activity (AC50) under setting [1] was 0.411 µM [rising, partial curve].

As for `CC(C)CCC(CCN1CCOCC1)c1ccc2c(c1)OCO2` (stereo unspecified), the cell number change came to 1.37%. The AC50 under setting [1] was 0.291 µM [rising, full curve, poor fit].

As to `O=C(CCOc1cccc(Br)c1)Nc1ccc(F)c(S(=O)(=O)N2CCOCC2)c1`, the cell number change was -75%. Besides, under setting [2], the AC50 is 8.2 µM [falling, partial curve]. Also, under setting [1], the AC50 is 2.06 µM [falling, partial curve].

With `CCOC(=O)N1CCN(S(=O)(=O)N2CCCC(C(=O)NCCc3ccc(OCC)c(OCC)c3)C2)CC1` (stereo unspecified), the AC50 under setting [1] was 1.3 µM [falling, full curve].

As to `O=Cc1ccc(-c2ccccc2OC(F)(F)F)o1`, the cell number change is -13.5%. Besides, the concentration at half-maximal activity (AC50) under setting [1] was 0.116 µM [rising, full curve, poor fit].

As for `COc1ccc(C2CC(c3ccc4ccccc4c3)=NN2C(=O)COC(=O)C2CCC(=O)N2)cc1` (stereo unspecified), the cell number change is -2.6%. Besides, under setting [1], the AC50 was 6.51 µM [rising, single point].

In the case of `CN1CCN(CCCC(=O)c2ccc(F)cc2)CC1`, the cell number change worked out at 0.841%. For the same molecule, the AC50 under setting [1] is 5.8 µM [falling, single point].

For the molecule `COc1c(O)ccc(/C=C(\C#N)c2nc3ccccc3[nH]2)c1[N+](=O)[O-]`, the cell number change was 15.3%. Also, under setting [1], the AC50 was 6.51 µM [rising, single point].

Regarding `CCOc1cccc2sc(=NC(=O)CCS(=O)(=O)c3ccccc3)n(CC)c12`, under setting [2], the AC50 was 0.0651 µM [rising, full curve, poor fit].

As to `Cc1ccc(NC(=S)NN2CCN(C)CC2)cc1`, the cell number change is -16.7%. Moreover, the AC50 under setting [2] was 1.03 µM [rising, full curve, poor fit].

Turning to `O=C(Cn1cnc2cc([N+](=O)[O-])ccc2c1=O)Nc1ccccc1Cl`, the cell number change was 2.91%. The AC50 under setting [1] was 6.51 µM [falling, single point].

Take `COc1cccc(N2C(=O)C3CCCN3C2c2ccc(Cl)cc2)c1` (stereo unspecified): the concentration at half-maximal activity (AC50) under setting [1] is 1.3 µM [falling, single point].

Take `O=C(NCC1CCCO1)c1ccc2c(=O)n(-c3ccc(F)cc3)c(=S)[nH]c2c1` (stereo unspecified): the cell number change was 31.6%. Besides, under setting [2], the AC50 was 13 µM [rising, partial curve].

For the molecule `COCC(=O)Nc1ccc(C(N)=O)cc1`, the cell number change is -4.05%. For the same molecule, the AC50 under setting [1] is 1.84 µM [falling, partial curve].

As for `CC(NC(=O)c1ccc(Br)o1)c1ccccc1` (stereo unspecified), the concentration at half-maximal activity (AC50) is 6.51 µM [falling, single point] under setting [2] and 6.51 µM [falling, partial curve, poor fit] under setting [1].

As for `COc1ccc(C)cc1NC(=O)CN(C)S(=O)(=O)c1cnc[nH]1`, the cell number change stood at 47.9%. Also, the half-maximal activity concentration (AC50) under setting [2] was 10.3 µM [rising, partial curve]. The concentration at half-maximal activity (AC50) under setting [1] was 6.51 µM [rising, partial curve, poor fit].

For `O=C(N/N=C/c1cc(Br)c(Br)o1)C(O)c1ccccc1` (stereo unspecified), the cell number change is -5.97%. In addition, the AC50 under setting [1] was 3.66 µM [rising, single point].

As for `COc1ccc(/C=C/C(=O)Nc2nnc(C(C)C)s2)cc1OC`, the cell number change is 36.3%. Also, the AC50 under setting [2] is 0.82 µM [rising, partial curve, poor fit].

In the case of `CC(=O)NS(=O)(=O)c1ccc(NC(=O)/C=C/c2ccccc2Cl)cc1`, the cell number change was -51.3%. Besides, the concentration at half-maximal activity (AC50) under setting [2] is 16.4 µM [falling, partial curve].

For the molecule `S=C(c1ccc(-c2ccccc2Cl)o1)N1CCCCC1`, the cell number change was determined as 6.48%. Besides, the concentration at half-maximal activity (AC50) under setting [1] was 29.1 µM [falling, single point].

For the molecule `CCNS(=O)(=O)c1ccc(CCC(=O)N2CCC(C)CC2)cc1`, the cell number change was found to be 3.86%.

Turning to `CCN(CC)CCCNC(=O)C1c2ccccc2Oc2ccccc21`, the cell number change stood at 15.9%.

Consider `Cc1ccc(OCC(=O)NNC(=O)CCC(=O)NCc2ccccc2)cc1`, for which the cell number change was -3.45%. Besides, the AC50 under setting [1] is 23.1 µM [falling, single point].

For the molecule `O=C(COC(=O)/C=C/c1ccco1)Nc1ccccc1`, the cell number change came out at 86%.

In the case of `CCN(C(=O)Cn1nc(C(=O)O)c2ccccc2c1=O)C1CCCCC1`, the AC50 under setting [1] was 0.164 µM [falling, full curve].

Take `COC(=O)c1cccnc1N1CCN(c2ccccc2F)CC1`: the concentration at half-maximal activity (AC50) is, setting by setting: under setting [2], 1.84 µM [rising, partial curve]; under setting [1], 0.231 µM [rising, partial curve, poor fit].
